# Data reported in article PMC7774954, “Interactomic affinity profiling by holdup assay: Acetylation and distal residues impact the PDZome-binding specificity of PTEN phosphatase” (PLoS ONE, 2020).
# Further values from the same series stand in other lists. *1 amine or outer side, *2 acyl side, *3 side chain or, on linkers, in order; H or OH if unused. Where a SMILES comes first, the peptide text is derived from it. The star is where a group is joined. X1 = O=C(CCCC[C@@H]1SC[C@@H]2NC(=O)N[C@@H]21)NCCCOCCOCCOCCCN*; Suc = O=C(CCC(=O)[*:2])[*:1]
# Test system: 266 human PDZ domains (PDZome)
# Assay: Holdup assay (chromatographic retention, PDZome-binding profile, BI)
# Design: key: binding intensity: 0.00 = no binding, 1.00 = maximal binding
# Method: The holdup method is a chromatographic approach in solution developed in our group that allows to measure the binding strength of a peptide, attached to a resin, against a library of domains of a same family. We initially proposed this method to explore the interaction between PBM peptides and the human PDZ domains. Briefly, a soluble cell lysate containing individually overexpressed PDZ domain is incubated until equilibrium with a calibrated amount of streptavidin-resin saturated either with the target biotinylated PBM peptide or with biotin as a reference. The flow-throughs containing the unbound protein fraction are recovered by filtration and loaded on a capillary electrophoresis instrument to quantify the amount of remaining free PDZ. The stronger the steady-state depletion of the PDZ domain in the flow-through as compared to the reference, the stronger the PDZ/PBM binding interaction. The assay is particularly suited to quantitatively evaluate and compare large numbers of interactions. This method delivers, for each PBM/PDZ pair, a "binding intensity" (BI), whose value can in principle range from 0.00 (no binding event detected) to 1.00 (maximal binding event). The approach has been automated and the human PDZ library was recently extended to the complete 266 PDZ domains known in human proteome. […] The high accuracy and efficiency of the holdup assay have been validated previously. Very recently, a manual version of the holdup assay with purified samples and using widespread benchtop equipment has been implemented and has proven to be reliable.
# The 266 PDZ domains that constitute the PDZ library (“PDZome V.2”) used in the present work were produced using constructs with optimized boundaries as described previously. All the genes were fused to Maltose-Binding Protein (MBP) or Thioredoxin (THR) tag often used to facilitate the solubilisation of the over-expressed protein, by cloning them into the pETG41A or pETG20A plasmid, respectively. […] The expressed tag-PDZ concentrations were quantified using capillary gel electrophoresis and cell lysates were diluted to reach approximately 5 μM tag-PDZ before freezing in 96-well plates. A detailed protocol of the PDZ library production, expression and benchmarking can be found in [32]. PDZ domains are named according to their originating protein name followed by the PDZ number (e.g. NHERF1-1 as the first PDZ domain of the NHERF1 protein).
# The holdup assay was performed on a Tecan freedom Evo200 robot with 384-well plates in singlicate for the three 11-mer PTEN variants and the 13-mer PTEN peptide as described in [31, 32]. Briefly, prior to interaction assay, 2.5 μL of streptavidin resin was saturated in each well with 20 μL of biotinylated PBM peptides (42 μM) and then washed twice with an excess of free biotin, while the reference resin was incubated only with biotin. Right before the holdup experiment, the PDZ library was spiked with an internal standard of lysozyme. Then, the biotin- or PBM-saturated resin was incubated, each in a distinct well of a 384-well plate, with complete cell lysates diluted so that the concentration of the tag-PDZ present in the crude extract is adjusted at 4 μM. After a sufficient time to reach complex equilibrium (15 min.), a fast and mild filtration step is performed and the tag-PDZ concentrations were measured by capillary electrophoresis instrument (LabChip GXII, PerkinElmer, Massachusets, USA). Standard markers were used to convert migration time into molecular weight on the LabChip software and inappropriate molecular weight markers were corrected or excluded.
# Holdup data quality check and processing […]
compound,measurement,setting,value
CC[C@H](C)[C@H](NC(=O)[C@H](CCC(N)=O)NC(=O)[C@@H](NC(=O)[C@H](Cc1c[nH]cn1)NC(=O)[C@H](CCC(N)=O)NC(=O)[C@H](CC(=O)O)NC(=O)[C@H](CCC(=O)O)NC(=O)[C@H](CC(=O)O)NC(=O)[C@H](Cc1ccccc1)NC(=O)[C@@H]1CCCN1C(=O)CCC(=O)NCCCOCCOCCOCCCNC(=O)CCCC[C@@H]1SC[C@@H]2NC(=O)N[C@@H]21)[C@@H](C)O)C(=O)N[C@H](C(=O)N[C@@H](CCCCN)C(=O)N[C@H](C(=O)O)C(C)C)[C@@H](C)O [PTEN_13] ({X1-Suc}-PFDEDQHTQITKV-OH),BI,PDZ domain STXB4-1,0.012
same,BI,PDZ domain SYNJ2BP-1,-0.022
same,BI,PDZ domain SYNP2-1,-0.11
same,BI,PDZ domain SYNPO2L-1,-0.016
same,BI,PDZ domain TIAM1-1,-0.052
same,BI,PDZ domain TIAM2-1,0.025
same,BI,PDZ domain TJP1-1,0.031
same,BI,PDZ domain TJP1-2,0.259
same,BI,PDZ domain TJP1-3,-0.042
same,BI,PDZ domain TJP2-1,-0.017
same,BI,PDZ domain TJP2-2,0.182
same,BI,PDZ domain TJP2-3,-0.095
same,BI,PDZ domain TJP3-1,0.004
same,BI,PDZ domain TJP3-2,-0.088
same,BI,PDZ domain TJP3-3,-0.008
same,BI,PDZ domain TX1B3-1,-0.012
same,BI,PDZ domain USH1C-1,0.022
same,BI,PDZ domain USH1C-2,0.038
same,BI,PDZ domain USH1C-3,0.076
CC[C@H](C)[C@H](NC(=O)[C@H](CCC(N)=O)NC(=O)[C@@H](NC(=O)[C@H](Cc1c[nH]cn1)NC(=O)[C@H](CCC(N)=O)NC(=O)[C@H](CC(=O)O)NC(=O)[C@H](CCC(=O)O)NC(=O)[C@H](CC(=O)O)NC(=O)CCC(=O)NCCCOCCOCCOCCCNC(=O)CCCC[C@@H]1SC[C@@H]2NC(=O)N[C@@H]21)[C@@H](C)O)C(=O)N[C@H](C(=O)N[C@@H](CCCCNC(C)=O)C(=O)N[C@H](C(=O)O)C(C)C)[C@@H](C)O [PTEN_Ac],BI,PDZ domain TJP1-2,0.019
same,BI,PDZ domain TJP1-3,-0.024
same,BI,PDZ domain TJP2-1,0.123
same,BI,PDZ domain TJP2-2,-0.035
same,BI,PDZ domain TJP2-3,-0.023
same,BI,PDZ domain TJP3-1,-0.023
same,BI,PDZ domain TJP3-2,-0.118
same,BI,PDZ domain TJP3-3,0.028
same,BI,PDZ domain TX1B3-1,0.18
same,BI,PDZ domain USH1C-1,-0.024
same,BI,PDZ domain USH1C-2,-0.011
